tested on: Trypanosoma cruzi; assay: Antitrypanosomal assay (beta-galactosidase reporter, intracellular amastigotes in Vero cells); format: cell-based; settings: Selectivity Index (CC50/IC50), CC50 on Vero cells
Experimental: Briefly, the expression of the reporter gene for beta-galactosidase (β-Gal) in the Tulahuen clone C4 of T. cruzi is assessed by colorimetry at 570 nm, which correlates with the parasite growth. Assays were performed on the intracellular amastigote form of the parasite infecting African green monkey kidney (Vero) cells, incubated for 120 h at 37 °C with 5% CO2.

| Compound | Trypanosoma cruzi SI |
| --- | --- |
| COc1cc2c(c(OC(C)=O)c1)C(=O)O[C@@H](C)C/C=C/[C@@H]1OC(C)(C)O[C@H]1[C@@H](OC(C)=O)C/C=C/2 [Compound 11] | 28 |
| COc1cc(O)c2c(c1)/C=C/C[C@H](OC(C)=O)[C@H](OC(C)=O)[C@@H](OC(C)=O)/C=C/C[C@H](C)OC2=O [Compound 12] | 88 |
| COc1cc2c(c(OC(=O)c3cccs3)c1)C(=O)O[C@@H](C)C/C=C/C(=O)[C@@H](OC(=O)c1cccs1)[C@@H](OC(=O)c1cccs1)C/C=C/2 [Compound 22] | 2 |
